US20240351977A1, “Compositions and Methods For Reducing Immune Intolerance and Treating Autoimmune Disorders” (Lapix Therapeutics, Inc., priority 2021, published 2024)
Some results were stated once for a whole list of compounds, not compound by compound.

System: MOG35-55-Induced Murine EAE Model
Test: MOG35-55-induced murine EAE model, prophylactic and therapeutic treatment
Assay type: in vivo, mice
Conditions: prophylactic oral treatment vs control
Procedure: Compound 2 was formulated with 1,2-distearoyl-sn-glycero-3-phosphocholine (DSPC) at a molar ratio of 3.75:96.25 Compound 2:DSPC. Two test articles were formulated and tested. The first formulation was made with Compound 2:DSPC with MOG35-55, referred to as Compound 2/MOG35-55. Another formulation was made without […], and is referred to as Compound 2. […] The ratio of Compound 2 to DSPC was chosen based on in vitro dose-response studies. Liposomes were prepared as described in Example 2, in PBS and extruded through a […] filter. Animals were dose with 100 μl of 42 μM Compound 2 or 100 μl of 42 μM/1 μg Compound 2/MOG35-55 per mouse PO QD. This dose was selected based on in vitro dose-response analysis.
In the active EAE model, mice are immunized with MOG35-55 peptide emulsified in Complete Freund's Adjuvant (CFA) by subcutaneous injection at the tail base (0.1 mL of emulsion/mouse) under anesthesia. On the day of injection (Day 0) and 2 days later, mice receive an intraperitoneal injection of Pertussis Toxin (PT) in PBS at 600 ng/mouse/dose (0.1 mL).
Symptoms typically develop in mice 9-14 days after immunization (Day 0). […]
To evaluate the therapeutic effects of Compound 2, treatment was initiated after the first clinical symptoms were observed. […] Mice in all groups were monitored and scored daily for clinical symptoms. […]

CCCCCCCCCCCCCCCCCC(=O)NC[C@H](N)C(=O)O [Compound 2, (S)-2-amino-3-stearamidopropanoic acid]
delay of disease onset: at least 3 days
